Data reported in US20020055173.
For some assays here: Tags and fusion partners may be left off the protein sequences shown.

Protein sequences, listed by entry. Tags and fused reporters are not part of them. Residues count along the entry.
UniProt P08047, 2-785: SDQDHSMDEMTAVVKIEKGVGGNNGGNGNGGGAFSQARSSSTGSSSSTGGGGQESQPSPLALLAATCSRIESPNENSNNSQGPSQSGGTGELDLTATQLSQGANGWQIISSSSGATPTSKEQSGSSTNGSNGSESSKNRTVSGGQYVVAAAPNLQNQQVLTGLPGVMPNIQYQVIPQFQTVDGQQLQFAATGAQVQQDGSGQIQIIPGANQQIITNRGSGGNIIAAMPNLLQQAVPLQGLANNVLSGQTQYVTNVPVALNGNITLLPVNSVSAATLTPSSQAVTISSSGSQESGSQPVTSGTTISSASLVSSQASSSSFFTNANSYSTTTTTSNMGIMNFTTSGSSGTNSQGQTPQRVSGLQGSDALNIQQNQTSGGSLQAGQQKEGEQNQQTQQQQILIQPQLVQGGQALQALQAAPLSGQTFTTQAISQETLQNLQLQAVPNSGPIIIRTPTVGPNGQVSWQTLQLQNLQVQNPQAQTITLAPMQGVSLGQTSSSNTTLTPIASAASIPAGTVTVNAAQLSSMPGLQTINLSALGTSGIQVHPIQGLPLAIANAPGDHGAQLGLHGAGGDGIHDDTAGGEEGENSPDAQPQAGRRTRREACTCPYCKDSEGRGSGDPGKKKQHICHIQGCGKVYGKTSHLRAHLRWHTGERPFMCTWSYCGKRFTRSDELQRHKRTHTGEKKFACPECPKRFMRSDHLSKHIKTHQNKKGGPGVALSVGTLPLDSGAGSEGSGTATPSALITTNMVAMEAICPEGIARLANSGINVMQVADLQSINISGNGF

What was measured:
MAZ = molecular target: T1, MAZ (UniProt P56270); experiment: footprint; settings: -18GC occupied at lower protein than -36GC; also -166 and weak -130 site; purified recombinant protein; protein details: prepared as in Parks and Shenk 1996; label: 32P end label at +47
T1 sequence (looked up, limits assumed): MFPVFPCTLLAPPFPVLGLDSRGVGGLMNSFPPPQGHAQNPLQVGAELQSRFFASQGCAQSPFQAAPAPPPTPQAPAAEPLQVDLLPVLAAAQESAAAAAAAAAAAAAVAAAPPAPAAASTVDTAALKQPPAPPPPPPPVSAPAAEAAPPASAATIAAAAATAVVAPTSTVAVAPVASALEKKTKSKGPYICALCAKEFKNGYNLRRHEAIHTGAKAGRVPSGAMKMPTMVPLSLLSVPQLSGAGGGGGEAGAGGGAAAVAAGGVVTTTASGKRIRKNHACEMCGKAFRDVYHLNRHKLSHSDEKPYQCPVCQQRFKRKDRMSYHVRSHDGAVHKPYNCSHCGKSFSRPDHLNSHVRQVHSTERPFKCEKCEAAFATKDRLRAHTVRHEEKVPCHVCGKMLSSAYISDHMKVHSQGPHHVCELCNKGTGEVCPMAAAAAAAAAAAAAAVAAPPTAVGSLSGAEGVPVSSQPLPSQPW

Sp1 = Sp1 (UniProt P08047); experiment: footprint; settings: binds only -166 and -18GC, not -36GC; purified recombinant protein; protein details: Promega; label: 32P end label at +47

“ACTCTGAGACAAAGGCTCGCGTCCAGGCCAGCACGAAGGAGGCTAAGTGGGAGGGGTAGCGGTCGTTGTCCACTAGGGGGTCCACTCGCTCCAGGGTGTGAAGACACATGTCGCCCTCTTCGGCATCAAGGAAGGTGATTGGTTTGTAGGTGTAGGCCACGTGACCGGGTGTTCCTGAAGGGGGGCTATAAAAGGGGGTGGGGGCGCGTTCGTCCTCACTCTCTTCCGC (double strand) [Ad5 MLP (-260 to +47 probe; printed sequence 229 nt)]”: binds (MAZ); binds (Sp1).
